Measured values published in patent US20100041103A1, “COMPOSITION AND METHOD FOR ENHANCING CELL GROWTH AND CELL FUSION” (DO-COOP TECHNOLOGIES LTD., priority 2007, published 2010).
The name of at least one read-out is uncertain.

Test: Dissolving retinol in Neowater, absorbance and filtration (Example 12)
Assay type: physicochemical
Conditions: alkali versus acidic Neowater
Protocol: Retinol (vitamin A) was purchased from Sigma (Fluka, 99% HPLC). Retinol was solubilized in Neowater™ under the following conditions.
1% retinol (0.01 gr in 1 ml) in EtOH and Neowater™
0.5% retinol (0.005 gr in 1 ml) in EtOH and Neowater™
0.5% retinol (0.125 gr in 25 ml) in EtOH and Neowater™.
0.25% retinol (0.0625 gr in 25 ml) in EtOH and Neowater™. Final EtOH concentration: 1.5%
Absorbance spectrum of retinol in EtOM: Retinol solutions were made in absolute EtOH, with different retinol concentrations, in order to create a calibration graph; absorbance spectrum was detected in a spectrophotometer.
2 solutions with 0.25% and 0.5% retinol in Neowater with unknown concentration of EtOH were detected in a spectrophotometer. Actual concentration of retinol is also unknown since some oil drops are not dissolved in the water.
Filtration: 2 solutions of 0.25% retinol in Neowater™ were prepared, with a final EtOH concentration of 1.5%.The solutions were filtrated in […] filter.

SMILES: CC1=C(/C=C/C(C)=C/C=C/C(C)=C/CO)C(C)(C)CCC1 [Retinol]
- ease of solubilization in Neowater: solubilized easily in alkali Neowater™ rather than acidic Neowater™
